According to publication PMC7181607:
Results are given in words; binding and its absence hold for the method and conditions named. Binding seen in cells or lysates may run through a third protein. Some results given as binding are weak or reduced against the parent protein; the word gives no strength. Sequences can lack the tags named with a protein.

Target: endogenous p53 (human (endogenous in U2OS, A375, HeLa)) (UniProt P04637)
Assay: proximity ligation; Duolink in situ PLA in fixed U2OS cells transfected with IL-1α/EGFP or IL-1αNTP/EGFP; anti-GFP and anti-p53 (CM-1) antibodies; IL-1α/EGFP cells treated with 20 μM roscovitine for 24 hours

binding: binds
B1: IL-1αNTP/EGFP fusion protein (domain or fragment, UniProt P01583 1-112)
chain: MAKVPDMFEDLKNCYSENEEDSSSIDHLSLNQKSFYHVSYGPLHEGCMDQSVSLSISETSKTSKLTFKESMVVVATNGKVLKKRRLSLSQSITDDDLEAIANDSEEEIIKPR
